Reference: PubChem BioAssay AID1259327 (Drosophila RNAi Screening Center, 2017)

Purpose: 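Data from controls in screens of zinc and manganese toxicity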
System: Drosophila S2R+ cells
Reagent: long dsRNA against Drosophila genes
Duration: 5 days (water added on day 4, read one day later)
Conditions: water added as vehicle, no metal, one day before read-out
Measured: 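Luciferase ATP signal per well, normalised to plate mean, duplicate average converted to z-score across plates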
Reading the numbers: ATP z-score: higher = more total ATP than typical wells; ATP luminescence: higher = more total ATP
Call rule: 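Called active when the ATP z-score exceeds 1.5 or falls below -1.5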
Calls: active = hit: ATP up or down; inactive = no clear ATP change
The whole screen tested about 3,100 reagents; shown is an unselected part. 378 of them (12%) were called active. 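Hits include both directions; z-score sign shows ATP rise or fall; raw luminescence values are not plate-normalised.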 A plus sign joins genes that one reagent is predicted to hit. The record does not give: the amount of reagent.

predicted target	DRSC id	ATP z-score, duplicate mean	ATP luminescence, replicate 1 (RLU)	ATP luminescence, replicate 2 (RLU)	activity call
CG9981	DRSC20225	1.12	7.18e5	8.35e5	inactive
stas	DRSC20104	-1.06	5.82e5	6.11e5	inactive
Gr39b	DRSC26464	-1.52	8.39e5	9.99e5	active
Gr39b	DRSC39892	1.3	6.73e5	7.19e5	inactive
AstC-R1	DRSC10799	0.282	9.49e5	9.17e5	inactive
AstC-R1	DRSC29648	0.739	9.69e5	8.59e5	inactive
Eato	DRSC01891	0.284	4.73e5	5.27e5	inactive
Eato	DRSC03061	0.264	7.55e5	7.53e5	inactive
kon	DRSC02033	0.847	4.61e5	6.21e5	inactive
kon	DRSC39622	-1.1	3.69e5	4.13e5	inactive
Arts + Apl	DRSC10349	0.48	8.33e5	1.08e6	inactive
laza	DRSC23330	-0.627	5.72e5	4.80e5	inactive
laza	DRSC29129	-0.043	8.86e5	7.55e5	inactive
CR12628 + Mgstl	DRSC03702	-2.83	4.29e5	5.84e5	active
CR12628 + Mgstl	DRSC20568	-0.59	6.92e5	6.64e5	inactive
CG9308	DRSC04539	-0.0537	6.95e5	7.45e5	inactive
CG9308	DRSC28962	0.0522	9.19e5	7.47e5	inactive
BBIP1 + CG8135	DRSC16384	-0.298	3.00e5	6.94e5	inactive
BBIP1 + CG8135	DRSC26052	0.359	9.02e5	8.88e5	inactive
Sugb	DRSC10815	0.208	7.40e5	7.67e5	inactive
Sugb	DRSC39654	0.614	5.14e5	5.00e5	inactive
CG8925	DRSC16455	1.47	4.08e5	8.13e5	inactive
CG8925	DRSC16457	-0.0405	7.33e5	7.43e5	inactive
Or67b	DRSC11241	-1.02	7.89e5	7.38e5	inactive
Or67b	DRSC39658	-0.713	3.94e5	4.41e5	inactive
PGRP-LC	DRSC08980	-0.145	7.20e5	7.33e5	inactive
PGRP-LC	DRSC10416	-0.655	8.43e5	7.78e5	inactive
PGRP-LC	DRSC10417	-0.291	8.88e5	8.29e5	inactive
PGRP-LC	DRSC28556	0.904	9.93e5	8.76e5	inactive
Msp300	DRSC00856	-0.504	6.35e5	7.44e5	inactive
Msp300	DRSC00858	0.231	7.16e5	8.23e5	inactive
Msp300	DRSC03369	1.53	5.33e5	6.43e5	active
Msp300	DRSC03370	1.4	8.79e5	8.70e5	inactive
spict	DRSC02157	0.222	4.84e5	5.06e5	inactive
spict	DRSC39463	-0.829	4.39e5	3.59e5	inactive
ppk18	DRSC02216	-0.72	6.27e5	6.72e5	inactive
ppk18	DRSC02217	-1.13	6.24e5	5.88e5	inactive
ppk18	DRSC39853	0.595	5.01e5	5.42e5	inactive
Ir48c	DRSC06154	-0.52	6.09e5	5.36e5	inactive
Ir48c	DRSC39434	-1.03	4.34e5	3.39e5	inactive
CG31793	DRSC02605	-0.0952	6.77e5	7.54e5	inactive
CG31793	DRSC24308	0.0781	1.03e6	6.56e5	inactive
Tsp42El	DRSC06186	-0.554	5.71e5	8.02e5	inactive
Gr23a	DRSC00410	0.715	7.39e5	8.19e5	inactive
Gr23a	DRSC27488	-0.37	8.94e5	1.02e6	inactive

Next part (4 carried over from the part before).
predicted target	DRSC id	ATP z-score, duplicate mean	ATP luminescence, replicate 1 (RLU)	ATP luminescence, replicate 2 (RLU)	activity call
CG31793	DRSC24308	0.0781	1.03e6	6.56e5	inactive
Tsp42El	DRSC06186	-0.554	5.71e5	8.02e5	inactive
Gr23a	DRSC00410	0.715	7.39e5	8.19e5	inactive
Gr23a	DRSC27488	-0.37	8.94e5	1.02e6	inactive
CG14420	DRSC17917	-0.755	6.89e5	8.13e5	inactive
CG14420	DRSC25167	-0.394	8.62e5	9.82e5	inactive
Fili	DRSC03907	-0.582	6.78e5	6.81e5	inactive
Fili	DRSC04132	-0.219	6.87e5	7.18e5	inactive
Fili	DRSC04445	0.377	7.56e5	7.76e5	inactive
CG2698	DRSC15447	-1.03	2.53e5	6.50e5	inactive
CG2698	DRSC39597	1.22	5.38e5	5.59e5	inactive
Osi16	DRSC21323	-0.402	5.24e5	5.67e5	inactive
Eglp1	DRSC04502	-0.027	7.24e5	7.32e5	inactive
Amnionless	DRSC00317	-0.141	6.81e5	7.01e5	inactive
pasi2	DRSC16380	1.18	3.11e5	9.97e5	inactive
pasi2	DRSC39713	-1.32	3.36e5	4.16e5	inactive
PK2-R1	DRSC16447	-0.114	2.98e5	7.39e5	inactive
PK2-R1	DRSC24363	-0.429	7.59e5	8.36e5	inactive
CG3702	DRSC00628	0.22	4.61e5	5.30e5	inactive
CG3702	DRSC39885	-1.71	3.97e5	4.84e5	active
CG1662	DRSC19754	-0.862	6.02e5	6.31e5	inactive
sax	DRSC07675	-0.756	5.85e5	7.18e5	inactive
sax	DRSC26844	1.56	9.28e5	9.15e5	active
sax	DRSC37004	0.0635	4.46e5	7.27e5	inactive
ATPsynbetaL	DRSC10503	0.67	9.91e5	9.76e5	inactive
ATPsynbetaL	DRSC24354	-0.0589	8.99e5	7.86e5	inactive
NLaz	DRSC21521	0.23	5.41e5	6.58e5	inactive
